Measurements from US5932483A (Northwestern University, priority 1996, dated 1999).
No end group written: not given here.

Assay: peptide made by a vendor
Details: purification step

Question: Which step yield does the source give for LEQGENVFLQATLLC here?
Answer: 41%

Question: What about the “final HPLC purity” value (analytical C18 reverse phase HPLC with UV detection, amino acid analysis) of the same sequence?
Answer: 80-90%
